The values below come from the supplement of paper PMC4604168 (melanoma cell lines).

This is one part of the list. Many values rest on one well or one pass, so single values are uncertain.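 The apoptosis fraction was the count of cleaved-PARP antibody-stained nuclei relative to all DNA-stained nuclei, imaged in 1,536-well plates. Screening doses were set so most cells survived, and baseline and induced cleaved-PARP levels vary greatly across cell lines.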

This assay concerns WM451Lu. Briefly: cleaved PARP positive nuclei fraction relative to DMSO control; melanoma cells; higher = more apoptosis. The conditions noted are these: library dose: low library concentration; 72 h.
As to `Cc1ccc(Nc2nccc(N(C)c3ccc4c(C)n(C)nc4c3)n2)cc1S(N)(=O)=O` [Pazopanib] + CC(=O)c1c(C)c2cnc(Nc3ccc(N4CCNCC4)cn3)nc2n(C2CCCC2)c1=O [palbociclib] (first compound 0.4 µM, partner dose 0.04 µM), the “cleaved PARP positive nuclei fraction” value amounted to 203%.

For `CC[C@]1(O)C[C@H]2CN(CCc3c([nH]c4ccccc34)[C@@](C(=O)OC)(c3cc4c(cc3OC)N(C=O)[C@H]3[C@@](O)(C(=O)OC)[C@H](OC(C)=O)[C@]5(CC)C=CCN6CC[C@]43[C@@H]65)C2)C1` [vincristine] + C#Cc1cccc(Nc2ncnc3cc(OCCOC)c(OCCOC)cc23)c1 [erlotinib] (first compound 0.0001 µM, partner dose 0.8 µM), the “cleaved PARP positive nuclei fraction” value was determined as 119%.

`N#CC[C@H](C1CCCC1)n1cc(-c2ncnc3[nH]ccc23)cn1` [ruxolitinib] + O=C(O)[C@@H]1[O][Sb](=[O])([O][Sb]2(=[O])[O][C@H]([C@H](O)CO)[C@H](O)[C@H](C(=O)O)[O]2)[O][C@H]([C@H](O)CO)[C@@H]1O [stibogluconate] (first compound 1 µM, partner dose 2 µM): the “cleaved PARP positive nuclei fraction” value came out at 130%. With `Cc1cn(-c2cc(NC(=O)c3ccc(C)c(Nc4nccc(-c5cccnc5)n4)c3)cc(C(F)(F)F)c2)cn1` [nilotinib] + CC(=O)O[C@@]12CO[C@@H]1C[C@H](O)[C@@]1(C)C(=O)[C@H](O)C3=C(C)[C@@H](OC(=O)[C@H](O)[C@@H](NC(=O)OC(C)(C)C)c4ccccc4)C[C@@](O)([C@@H](OC(=O)c4ccccc4)[C@H]21)C3(C)C [Docetaxel] (first compound 0.2 µM, partner dose 0.0001 µM) the figure was 64.2%.

As to `COc1cc([C@@H]2c3cc4c(cc3[C@@H](O[C@@H]3O[C@@H]5CO[C@@H](C)O[C@H]5[C@H](O)[C@H]3O)[C@H]3COC(=O)[C@H]23)OCO4)cc(OC)c1O` [etoposide] + Cc1nc(Nc2ncc(C(=O)Nc3c(C)cccc3Cl)s2)cc(N2CCN(CCO)CC2)n1 [dasatanib] (first compound 0.02 µM, partner dose 0.004 µM), the “cleaved PARP positive nuclei fraction” value amounted to 49.1%. With `CC[C@]1(O)C[C@H]2CN(CCc3c([nH]c4ccccc34)[C@@](C(=O)OC)(c3cc4c(cc3OC)N(C=O)[C@H]3[C@@](O)(C(=O)OC)[C@H](OC(C)=O)[C@]5(CC)C=CCN6CC[C@]43[C@@H]65)C2)C1` [vincristine] + Cc1ccc(Nc2nccc(N(C)c3ccc4c(C)n(C)nc4c3)n2)cc1S(N)(=O)=O [Pazopanib] (first compound 0.0001 µM, partner dose 0.4 µM) the figure was 101%; with `O=C(/C=C/c1cccnc1)NCCCCC1CCN(C(=O)c2ccccc2)CC1` + Cn1c(=O)n(-c2ccc(C(C)(C)C#N)cc2)c2c3cc(-c4cnc5ccccc5c4)ccc3ncc21 [NVP-BEZ235] (first compound 0.01 µM, partner dose 0.004 µM), 89.6%; with `O=C(/C=C/c1cccnc1)NCCCCC1CCN(C(=O)c2ccccc2)CC1` + Cc1cn(-c2cc(NC(=O)c3ccc(C)c(Nc4nccc(-c5cccnc5)n4)c3)cc(C(F)(F)F)c2)cn1 [nilotinib] (first compound 0.01 µM, partner dose 0.2 µM), 78.4%. The same measure for `O=C(/C=C/c1cccnc1)NCCCCC1CCN(C(=O)c2ccccc2)CC1` + COCC[n+]1c2c(n(Cc3cnccn3)c1C)C(=O)c1ccccc1C2=O [YM155] (first compound 0.01 µM, partner dose 0.0004 µM): 25.6%. With `COc1cc([C@@H]2c3cc4c(cc3[C@@H](O[C@@H]3O[C@@H]5CO[C@@H](C)O[C@H]5[C@H](O)[C@H]3O)[C@H]3COC(=O)[C@H]23)OCO4)cc(OC)c1O` [etoposide] + O=c1[nH]nc(Sc2ncc([N+](=O)[O-])s2)n1-c1ccc2c(c1)OCCO2 [BI78D3] (first compound 0.02 µM, partner dose 0.2 µM) the figure was 253%; with `Cc1cc(Nc2cc(N3CCN(C)CC3)nc(Sc3ccc(NC(=O)C4CC4)cc3)n2)n[nH]1` [Tozasertib] + C[C@@H](Oc1cc(-c2cnn(C3CCNCC3)c2)cnc1N)c1c(Cl)ccc(F)c1Cl [Crizotinib] (first compound 0.006 µM, partner dose 0.2 µM), 138%.

For `O=C(Nc1cc(C(F)(F)F)cc(C(F)(F)F)c1)c1cc(Cl)ccc1O` + COCC[n+]1c2c(n(Cc3cnccn3)c1C)C(=O)c1ccccc1C2=O [YM155] (first compound 0.016 µM, partner dose 0.0004 µM), the “cleaved PARP positive nuclei fraction” value is 242%.

As to `O=c1[nH]nc(Sc2ncc([N+](=O)[O-])s2)n1-c1ccc2c(c1)OCCO2` + CCCCCCCCc1ccc(CCC(N)(CO)CO)cc1 [fingolimod] (first compound 0.2 µM, partner dose 2 µM), the “cleaved PARP positive nuclei fraction” value was 192%.
